PubChem BioAssay AID1224828, NIAID | 2016
Assay: 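Regulators linking TLR4 signalling to p65 nuclear translocation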 (primary screen). Cell system: mouse RAW264.7 G9 macrophage reporter cells (GFP-p65, Tnf promoter-mCherry). Knock-down reagent: siRNA pool against mouse genes, 100 nM. Duration: 2 days siRNA transfection, then 40 min LPS before fixation. Conditions: LPS (Salmonella minnesota R595) at 10 ng/ml. Measurement: 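Imaged p65 nuclear translocation ratio, normalised to the plate median, converted to robust z-scores and averaged across two replicates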. Direction: p65 translocation robust z-score: higher = more nuclear NF-kappaB p65 after LPS than the plate median; nuclear/cytoplasmic p65 ratio: higher = more nuclear NF-kappaB p65. Hit rule: 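Active if robust z is above 3.3 (negative regulators) or below -1.56, the Tlr4 control median (positive regulators); activity score 50 or more; control wells not called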. Meaning of the calls: active = hit (p65 shift raised or lowered); inactive = no clear change.
The whole screen tested about 17,000 reagents; this is an unselected part. Of all reagents, 762 (4.5%) got an active call. 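Active calls include both raised and lowered p65 entry, mostly lowered; wells with fewer than 50 cells lack a z-score.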 Raw values are not corrected between plates. Entries without a mark were called inactive. Reagents against one gene are numbered here.

gene	pool no.	p65 translocation robust z-score	nuclear/cytoplasmic p65 ratio, rep 1	nuclear/cytoplasmic p65 ratio, rep 2	low cell count flag
Josd1	1	-0.12	1.48	1.73	enough cells to score
H3c1	1	0.89	1.58	1.68	enough cells to score
Or5d36	1	-2.59 (active)	1.32	1.14	enough cells to score
Pwwp3b	1	0.61	1.34	1.63	enough cells to score
Pramel4	1	1.4	1.51	1.42	enough cells to score
Pramel4	2	-1.59 (active)	1.2	1.02	enough cells to score
Foxs1	1	-0.37	1.39	1.32	enough cells to score
Tut4	1		1.37	1.05	fewer than 50 cells per well; well left out of scoring
Fbxo22	1	0.19	1.53	1.36	enough cells to score
Tpp1	1	-1.38	1.27	1.21	enough cells to score
Cpa4	1	0.66	1.6	1.97	enough cells to score
Dcaf12l1	1	0.24	1.45	1.27	enough cells to score
Spmap2	1	0.8	1.63	1.64	enough cells to score
Smtnl1	1	-0.02	1.5	1.62	enough cells to score
Mvd	1	-1.48	1.47	1.19	enough cells to score
Pstpip1	1	-0.21	1.57	1.29	enough cells to score
Alpk2	1	1.06	2.1	1.32	enough cells to score
Cnih3	1		1.16	1.17	fewer than 50 cells per well; well left out of scoring
Ptpru	1	1.48	1.72	1.73	enough cells to score
Sync	1	-0.23	1.33	1.09	enough cells to score
Ddb1	1	1	1.66	1.47	enough cells to score
Abcg4	1	-0.5	1.54	1.59	enough cells to score
Tm9sf3	1		1.22	1.18	fewer than 50 cells per well; well left out of scoring
Erp27	1		1.33	0.911	fewer than 50 cells per well; well left out of scoring
Bmal1	1	-0.22	1.6	1.57	enough cells to score
Or2z8	1		1.37	1.36	fewer than 50 cells per well; well left out of scoring
Aff3	1	-0.44	1.35	1.38	enough cells to score
Fgf18	1	-0.93	1.26	1.27	enough cells to score
Gusb	1	-1.06	1.23	1.29	enough cells to score
Magea4	1	1.63	2.01	1.75	enough cells to score
Ephb2	1	1.69	2.01	1.56	enough cells to score
Trim62	1	0.34	1.41	1.5	enough cells to score
Cd99	1		1.31	1.61	fewer than 50 cells per well; well left out of scoring

The list goes on; the last 6 above are carried over.
gene	pool no.	p65 translocation robust z-score	nuclear/cytoplasmic p65 ratio, rep 1	nuclear/cytoplasmic p65 ratio, rep 2	low cell count flag
Fgf18	1	-0.93	1.26	1.27	enough cells to score
Gusb	1	-1.06	1.23	1.29	enough cells to score
Magea4	1	1.63	2.01	1.75	enough cells to score
Ephb2	1	1.69	2.01	1.56	enough cells to score
Trim62	1	0.34	1.41	1.5	enough cells to score
Cd99	1		1.31	1.61	fewer than 50 cells per well; well left out of scoring
Asb13	1	-0.41	1.58	1.41	enough cells to score
Tnfrsf13c	1	-1.76 (active)	1.06	1	enough cells to score
Myg1	1	0.74	1.83	1.77	enough cells to score
Ercc6l	1	0.92	1.8	1.9	enough cells to score
Alpk3	1	-0.36	1.54	1.41	enough cells to score
Cox14	1		1.28	1.25	fewer than 50 cells per well; well left out of scoring
Hic2	1	0.7	1.56	1.66	enough cells to score
Mlc1	1	1.35	1.6	1.53	enough cells to score
Prepl	1	0.87	1.86	1.75	enough cells to score
Zcchc14	1		1.34	1.52	fewer than 50 cells per well; well left out of scoring
Hacl1	1	0.85	1.66	1.56	enough cells to score
Kctd18	1	1.6	1.59	1.83	enough cells to score
Sars1	1	-0.55	1.34	1.16	enough cells to score
Rps4l	1	-1.73 (active)	1.26	1.25	enough cells to score
A930104D05Rik	1	-0.26	1.45	1.38	enough cells to score
Paqr5	1	-0.77	1.38	1.61	enough cells to score
Ly6a	1		1.73	1.46	fewer than 50 cells per well; well left out of scoring
Fam78a	1	-0.03	1.35	1.55	enough cells to score
Hoxd8	1	-0.58	1.33	1.32	enough cells to score
Rmdn2	1	-1.07	1.33	1.47	enough cells to score
Nkapl	1		1.05	1.11	fewer than 50 cells per well; well left out of scoring
Omd	1	-0.36	1.37	1.22	enough cells to score
Xpo4	1	0.01	1.38	1.28	enough cells to score
Golph3l	1		1.6	1.21	fewer than 50 cells per well; well left out of scoring
Rbm12	1		1.35	1.18	fewer than 50 cells per well; well left out of scoring
Taf1b	1	0.75	1.58	1.66	enough cells to score
